The values that follow come from PMC6943441 (Molecules, 2019).

The same purity stands for every peptide and may come from a single statement. Strings that start with PEPTIDE1 are HELM notation: dots part the residues, brackets hold end groups and non-standard residues. Square brackets hold non-standard residues; d marks the D form. 2Pal = N[C@@H](Cc1ccccn1)C(=O)O; 3Pal = N[C@@H](Cc1cccnc1)C(=O)O; 4Pal = N[C@@H](Cc1ccncc1)C(=O)O

This data set can be described thus: general procedure: Fmoc solid-phase peptide synthesis; Fmoc-Leu-Wang resin; N,N'-diisopropylcarbodiimide / Oxyma. The following applies: whole synthesis; for final HPLC purity: UV area % from UPLC (Waters Acquity, PDA 200-400 nm, HSS T3 C18).

Regarding “H-YGG[2Pal]L-OH (N-terminus and C-terminus assumed; SMILES CC(C)C[C@H](NC(=O)[C@H](Cc1ccccn1)NC(=O)CNC(=O)CNC(=O)[C@@H](N)Cc1ccc(O)cc1)C(=O)O)”, the isolated mass is listed as 12.1 mg, the isolated yield turned out to be 10.8% and the “final HPLC purity” value is reported as at least 95%.
On to “H-YGG[4Pal]L-OH (N-terminus and C-terminus assumed; SMILES CC(C)C[C@H](NC(=O)[C@H](Cc1ccncc1)NC(=O)CNC(=O)CNC(=O)[C@@H](N)Cc1ccc(O)cc1)C(=O)O)”, for which the isolated mass was found to be 36.1 mg, the isolated yield was 32.4% and the “final HPLC purity” value is at least 95%.
Consider PEPTIDE1{Y.G.G.[mFh34c308].L}$$$$V2.0, for which the isolated mass is recorded as 60.5 mg, the isolated yield is recorded as 47.6% and the “final HPLC purity” value is at least 95%.
On the same counts, the results for PEPTIDE1{Y.G.G.[mFhc275c1].L}$$$$V2.0 are 50.0 mg, 43.1% and at least 95%.
PEPTIDE1{Y.G.G.[mFh83ed55].L}$$$$V2.0: the isolated mass was found to be 75.0 mg, the isolated yield is recorded as 55.2% and the “final HPLC purity” value was at least 95%.
In the case of PEPTIDE1{Y.G.G.[mFhefdbcf].L}$$$$V2.0, the isolated mass was found to be 40.1 mg, the isolated yield was 32.1% and the “final HPLC purity” value is reported as at least 95%.
On the same counts, the results for PEPTIDE1{Y.G.G.[mFh78ff5e].L}$$$$V2.0 are 26.0 mg, 22.3% and at least 95%.
For PEPTIDE1{Y.G.G.[mFh2adb45].L}$$$$V2.0, the isolated mass came out at 80.3 mg, the isolated yield is reported as 66.7% and the “final HPLC purity” value is at least 95%.
Regarding PEPTIDE1{Y.G.G.[mFh1fa75b].L}$$$$V2.0, the isolated mass turned out to be 60.2 mg, the isolated yield turned out to be 50.9% and the “final HPLC purity” value is reported as at least 95%.
With PEPTIDE1{Y.G.G.[mFhc39cab].L}$$$$V2.0, the isolated mass came to 90.2 mg, the isolated yield came to 78.9% and the “final HPLC purity” value was at least 95%.
Regarding PEPTIDE1{Y.G.G.[mFh5d7437].L}$$$$V2.0, the isolated mass was determined as 60.0 mg, the isolated yield was determined as 52.6% and the “final HPLC purity” value is listed as at least 95%.
Regarding “H-YGG[3Pal]L-OH (N-terminus and C-terminus assumed; SMILES CC(C)C[C@H](NC(=O)[C@H](Cc1cccnc1)NC(=O)CNC(=O)CNC(=O)[C@@H](N)Cc1ccc(O)cc1)C(=O)O)”, the isolated mass amounted to 70.0 mg, the isolated yield is 62.9% and the “final HPLC purity” value is recorded as at least 95%.
